PubChem BioAssay AID1508597 – Cure First, 2020

Purpose: 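Survival screen with siRNA in ovarian cancer cells derived from patients, with or without rucaparib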 (primary screen)
System: human ovarian carcinoma lines grown from tumours: OCI-P5x (papillary serous) and OCI-C5x (clear cell)
Reagent: siRNA pool against human genes, 1.25 pmol siRNA per well
Duration: 72 h or 96 h, depending on the cell culture
Challenge: rucaparib 20 µM (about IC30) or vehicle, present until read-out
Rucaparib or vehicle: Vehicle
Cell line: OCI-C5x (clear cell)
Detection: 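ATP luminescence measured at 72 or 96 h according to the culture, then normalised and expressed as percent viability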
Reading the numbers: viability, normalised: higher = more viable cells remaining
Hit rule: 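a well counts as a hit if its normalised viability is under 80 percent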
Calls: active = viability under 80%; inactive = viability 80% or more
Shown is an unselected part of the about 2,100 reagents, in one setting of the screen. 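Calls flag viability under 80% in either arm, not effects specific to rucaparib; the reference for percent is not stated.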 Not stated in the record: the 100% reference.

The first 5 records, ahead of the listing:
| gene | technical replicate | viability, normalised (%) | call |
| --- | --- | --- | --- |
| DDX52 | 1 | 57.4 | active |
| DDX52 | 2 | 39.5 | active |
| DDX52 | 3 | 41.9 | active |
| GDE1 | 1 | 39.3 | active |
| GDE1 | 2 | 41.1 | active |

Main list, repeating the preview:
| gene | technical replicate | viability, normalised (%) | call |
| --- | --- | --- | --- |
| DDX52 | 1 | 57.4 | active |
| DDX52 | 2 | 39.5 | active |
| DDX52 | 3 | 41.9 | active |
| GDE1 | 1 | 39.3 | active |
| GDE1 | 2 | 41.1 | active |
| GDE1 | 3 | 40 | active |
| RAB38 | 1 | 86 | inactive |
| RAB38 | 2 | 75.1 | active |
| RAB38 | 3 | 68.9 | active |
| STK38L | 1 | 73 | active |
| STK38L | 2 | 67.2 | active |
| STK38L | 3 | 67.7 | active |
| CREBBP | 1 | 36 | active |
| CREBBP | 2 | 37.8 | active |
| CREBBP | 3 | 31.7 | active |
| PBRM1 | 1 | 28.9 | active |
| PBRM1 | 2 | 29 | active |
| PBRM1 | 3 | 44.2 | active |
| IKBKE | 1 | 117 | inactive |
| IKBKE | 2 | 40.6 | active |
| IKBKE | 3 | 46.7 | active |
| KAT6B | 1 | 31.9 | active |
| KAT6B | 2 | 29.6 | active |
| KAT6B | 3 | 45.5 | active |
| NRG1 | 1 | 28.4 | active |
| NRG1 | 2 | 26.8 | active |
| NRG1 | 3 | 34.8 | active |
| CERKL | 1 | 42 | active |
| CERKL | 2 | 42 | active |
| CERKL | 3 | 37.8 | active |
| ETNK1 | 1 | 56.2 | active |
| ETNK1 | 2 | 76 | active |
| ETNK1 | 3 | 70 | active |
| SIN3A | 1 | 23.1 | active |
| SIN3A | 2 | 15 | active |
| SIN3A | 3 | 22.6 | active |
| TSSK6 | 1 | 59.9 | active |
| TSSK6 | 2 | 57.9 | active |
| TSSK6 | 3 | 52.3 | active |
| MSL3 | 1 | 50.2 | active |
| MSL3 | 2 | 59.9 | active |
| MSL3 | 3 | 51.9 | active |
| OGG1 | 1 | 74.6 | active |
| OGG1 | 2 | 58.7 | active |
| OGG1 | 3 | 56.9 | active |
| EHMT1 | 1 | 57.3 | active |
| EHMT1 | 2 | 62.3 | active |
| EHMT1 | 3 | 88.4 | inactive |
| ULK2 | 1 | 47.2 | active |
| ULK2 | 2 | 47.3 | active |
| ULK2 | 3 | 42.4 | active |
| NSD2 | 1 | 57.9 | active |
| NSD2 | 2 | 47.4 | active |
| NSD2 | 3 | 50.4 | active |
| TTBK1 | 1 | 40.9 | active |
| TTBK1 | 2 | 57.2 | active |
| TTBK1 | 3 | 51.8 | active |
